# Experimental data: publication PMC10163288
# This is one part of the list.
# B1: il2ra_site1_2b5i_normal_mot_f5ff40796168375b462bec8614a1db4a_0001_1_000000138_0001_53_65_H_._HHH_b1_00016_0001_0000100002_0000001_0_af2pred_dldesign_0_af2pred (protein)
# chain: SSSSSDPLRELVEELIEEAKKEPDKNLAHKKLLLARRVARKANDPELVARVEAVLKELESSSSSS
# B2: il2ra_site2_3nfp_sap_8_mot_HHH_b1_07347_000000014_0001_1_18_H_._HHH_b1_05293_0001_0001500057_0000001_1_0001 (protein)
# chain: SSSSSRETLREMIELALRALRDLGDEEAVELVEELLEEFEKTGDPKIALEVYEILLRATQSSSSS
# B3: il2ra_site1_2b5i_normal_mot_HHH_b2_04910_000000118_0001_1_19_H_._HHH_b1_03031_0001_0000300038_0000001_0_af2pred_0001_af2pred (protein)
# chain: SSSSSSQELLREADELAKNGNDEEAAEVLEEAYRIAKELGNRSMLKLIEAALKLVEALLGSSSSS
# B4: il2ra_site1_1z92_sap_17_mot_HHH_b1_00561_af2_000000294_0001_1_19_H_._HHH_eva_0050_af2_0002_0000300053_0000001_1_0001_af2pred_0001_af2pred (protein)
# chain: SSSSSSEQELAELLIRLIAKLGLSLEQIKELLELVRRLIERGVSEEEAERLIRELAEELSSSSSS
# B5: il2ra_site1_3nfp_sap_19_mot_HHH_b2_04939_000000051_0001_20_36_H_._HHH_b1_01129_af2_0001_0000300012_0000001_0_0001_af2pred_0001_af2pred_1_swapped (protein)
# chain: DEEEIKEEIRELLKRDPKEALQAAFKLLEEAERNKDPEAARVVLEAMLEVFGDPKLKRSLELARS
# B6: il2ra_site1_3nfp_sap_8_mot_HHH_b1_02247_af2_000000083_0001_41_56_H_._ems_3hM_3687_0001_0000200009_0000001_0_0001_af2pred_0001_af2pred_swapped (protein)
# chain: PFHELLERLLRRLGVPPEEIEEIREVLEKLSKLATKEAAKLAHELFRLVARGDPERVKELAKQIK
# B7: il2ra_site1_3nfp_sap_13_mot_HHH_b1_00678_af2_000000150_0001_43_56_H_._HHH_b2_04216_af2_0001_0000100003_0000001_0_0001 (protein)
# chain: DLKEAFKEAVEQLARVAGVPSVEVEEENGRFEVTVEGTNNDARVAKKVIEEAARSFGIEVELSEG
# B8: il2ra_site2_2erj_sap_18_mot_HHH_b1_07806_000000211_0001_42_56_H_._HHH_b2_00355_0001_0000100005_0000001_0_0001_af2pred_0001_1_af2pred_swapped (protein)
# chain: SSSSSDREEAEERIEELLEEAKHVPNKREAIELLQEAAELASEVDDPELLELVDEVLRRLSSSSS
# B9: il2ra_site2_3nfp_sap_13_mot_HHH_b1_01221_af2_000000126_0001_40_57_H_._HHH_b1_08143_0001_0000200015_0000001_0_0001 (protein)
# chain: SSSSDRSEEYVEVAIRLLKRAVENNDEEIVERLFHIVRLAAESNHDPELQREVEELFELLKSSSS
# B10: il2ra_site2_3nfp_normal_mot_HHH_b1_01086_000000225_0001_20_36_H_._HHH_b2_03611_0001_0000500059_0000001_0 (protein)
# chain: SSSSSEEEEKLEELLRELEELLKRDPEEAKRLLKEATNLAYEANDFEIFARLADISFALVSSSSS
# B11: il2ra_site2_3nfp_sap_34_mot_HHH_b2_07213_000000002_0001_43_56_H_._4d83e183faf91f8a362147004bdfc8eb_0001_1_af2_0001_0000100006_0000001_0_0001 (protein)
# chain: SSSSDVEERVRELLKEAEELLERGNPEEAKRVLAEAAHLAFEANNPELFFEIAELAFEVMGSSSS
# B12: il2ra_site1_1z92_sap_14_mot_1581cc1c700002558836ca695aafbf97_0001_1_af2_000000099_0001_17_32_H_._d5167a162c519d043ddc16d89768c28c_0001_1_0001_0000100008_0000001 … (protein)
# chain: SLEEEIERALKEAGVPPEEIEAIKRDIRRTQEFGIPPRSIALAVLRALKSHDEELAERVEELLRK
# B13: il2ra_site1_2b5i_sap_23_mot_80f7b4c21c45092860cd8bceb88a7fbb_0001_000000049_0001_1_12_H_._b2d1899c17953ecbf06dd009f3b9ec57_0001_0001_0000100003_0000001_0_0001_a … (protein)
# chain: SSSSSSKEELRRLLEELNELVQNEKYEEAKKLAEKLLELAKKLKDKFAERVAKLALELLESSSSS
# B14: il2ra_site1_3nfp_sap_9_mot_cc4219192d8ccd35c40e7b68f9a57604_0001_af2_000000124_0001_16_32_H_._HHH_b1_05002_af2_0001_0001000017_0000001_0_0001 (protein)
# chain: SRALERFVEQARKRGNPEFARVVEILLEVLELDPRLREEIDKIILRLVSGRLPPEEAERLAEELK
# B15: il2ra_site2_2erj_normal_mot_af86707857d369f3e1d85dcabc5f9321_0001_000000201_0001_14_29_H_._HHH_b1_04070_af2_0001_0000300022_0000001_1 (protein)
# chain: SSSSSEAEEEARELLEEAKRLLEEGNPEEALKVLSRAFVLAYKLGDHELAAEIIELTRLVASSSS
# B16: il2ra_site1_1z92_normal_mot_HHH_b1_07120_000000092_0001_43_57_H_._HHH_b2_04866_af2_0001_0000500016_0000001_0_af2pred_0001_af2pred (protein)
# chain: SSSSSSDDIEEILELLERAIRVRDEEEVEELLKEAERLARELNDENLLRDVEIVAELKSSSSSSS
# B17: il2ra_site2_3nfp_sap_18_mot_HHH_b2_00429_000000100_0001_21_37_H_._HHH_b1_05778_0001_0000100011_0000001_0_0001_af2pred_0001_1_af2pred_swapped (protein)
# chain: SSSSDEVEERVKELIEEAEELLKEGDHEEAERLAREALKLALEANDEELFLAVLRLLERILSSSS
# B18: il2ra_site2_2erj_sap_19_mot_HHH_b2_01204_af2_000000056_0001_19_34_H_._HHH_b2_05885_af2_0001_0000300005_0000001_0_0001 (protein)
# chain: SSSSDDNREQIEEAVRQALENGDYDLAEAVVRLLERFAKRAGDPELEKAAEELEELVEEYRSSSS
# Target: il2ra, P01589
# Assay: yeast display titration
row,Binder,apparent Kd
1,B1,inactive: no binding seen
2,B2,inactive: no binding seen
3,B3,inactive: no binding seen
4,B4,inactive: no binding seen
5,B5,inactive: no binding seen
6,B6,inactive: no binding seen
7,B7,inactive: no binding seen
8,B8,inactive: no binding seen
9,B9,inactive: no binding seen
10,B10,inactive: no binding seen
11,B11,inactive: no binding seen
12,B12,inactive: no binding seen
13,B13,inactive: no binding seen
14,B14,inactive: no binding seen
15,B15,inactive: no binding seen
16,B16,inactive: no binding seen
17,B17,inactive: no binding seen
18,B18,inactive: no binding seen
